Laboratory results: PubChem BioAssay AID743454 (Peter MacCallum Cancer Centre, 2014)

Screen: 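Search for knock-downs that restore vorinostat killing in resistant colon cancer cells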 (primary screen)
Cell system: human HCT116-VR colon cancer cells, selected for vorinostat resistance
Reagent: siRNA pool against human genes, 40 nM siRNA pool
Time to read-out: vorinostat for 24 h, read-out about 72 h after transfection
Challenge: vorinostat at 2.5 µM final
Detection: 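Two measures, CellTiter-Fluor viability and luminescent caspase 3/7 activity, each as fold change against same-plate mock wells, mean of duplicates, then screen-wide robust z-score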
Scale: viability robust z-score: higher = more viable cells than screen typical; caspase robust z-score: higher = more caspase 3/7 activity than screen typical
Call rule: 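a knock-down is a hit when classed RV1 or RV2 for lowered viability, or CA1 or CA2 for caspase activation; those lethal without drug were dropped; hits were retested singly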
The deposit covers about 18,000 reagents; this is a random part of them. Of all reagents, 450 (2.5%) got an active call. 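Single biological run; no consistent viability z cut-off exists, so the class columns, not z-scores, define the calls.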

| gene | viability hit class | caspase hit class | viability robust z-score | caspase robust z-score | Call |
| --- | --- | --- | --- | --- | --- |
| PUF60 | RV2 (reduced viability) | CA2 (caspase activation) | -3.61 | 9.61 | active |
| SRFBP1 | no change | no change | -1.41 | -0.92 | inactive |
| DCAKD | no change | no change | 0.65 | -0.13 | inactive |
| NUDT16L1 | no change | no change | -0.62 | -0.56 | inactive |
| IMPA1 | no change | no change | 0.37 | -0.1 | inactive |
| NXPH2 | no change | no change | -0.22 | 0.18 | inactive |
| NCS1 | no change | no change | -0.28 | -0.43 | inactive |
| C1orf53 | no change | no change | -1.28 | 1.35 | inactive |
| HINT2 | no change | no change | 0.52 | 0.32 | inactive |
| HLA-DMA | no change | no change | 0.87 | -0.84 | inactive |
| PMP2 | no change | no change | 1.43 | -0.56 | inactive |
| CWC22 | RV2 (reduced viability) | no change | -3.02 | -0.64 | active |
| TRIM34 | no change | no change | 1.05 | -0.09 | inactive |
| ZNF74 | no change | no change | 1.26 | -0.7 | inactive |
| TRMT9B | no change | no change | 1.15 | 0.3 | inactive |
| INPP1 | no change | no change | 0.98 | 0.57 | inactive |
| CHRNA5 | no change | no change | 1.17 | -0.06 | inactive |
| THBS1 | no change | no change | -0.03 | 2.44 | inactive |
| ADAMTS6 | no change | no change | -0.9 | 1.5 | inactive |
| ZXDB | no change | no change | -0.18 | -0.6 | inactive |
| YTHDF3 | no change | no change | -0.13 | 0.48 | inactive |
| RFK | no change | no change | 0.67 | -0.22 | inactive |
| CEP164 | no change | no change | -2.34 | 1.51 | inactive |
| SH3RF2 | no change | no change | 0.76 | 0.34 | inactive |
| KRT38 | no change | no change | 0.22 | 0.63 | inactive |
| DMBT1 | no change | no change | 0.22 | 0.74 | inactive |
| AIFM2 | no change | CA2 (caspase activation) | -2.77 | 6.22 | active |
| KRTAP11-1 | no change | no change | 0.67 | -0.7 | inactive |
| ACTN3 | no change | no change | 0.97 | -0.32 | inactive |
| EPHB6 | no change | no change | -1.27 | 3.12 | inactive |
| EIF2B2 | RV2 (reduced viability) | no change | -3.25 | 3.09 | active |
| HRH1 | no change | no change | 0.16 | -0.1 | inactive |
| CBFA2T3 | no change | no change | 0.68 | 0.34 | inactive |
| PLEKHA8P1 | no change | no change | 0.49 | 0.42 | inactive |
| OR2G3 | no change | no change | 0.96 | 0.82 | inactive |
| CDKN2B | no change | no change | 0.56 | 0.19 | inactive |
| MRO | no change | no change | -0.14 | 0.22 | inactive |
| SGMS1 | no change | no change | 0.92 | -0.16 | inactive |
| ARAP2 | no change | no change | 1.18 | -0.18 | inactive |
| PARD3B | no change | no change | 0.96 | -0.38 | inactive |
| PELI2 | no change | no change | -0.51 | 2.34 | inactive |
| TNXB | no change | no change | -0.8 | 2.29 | inactive |
| TOLLIP | no change | no change | -0.42 | -0.75 | inactive |
| MAGEE1 | no change | no change | 0.65 | -0.42 | inactive |
| CRHR1 | no change | no change | -1.19 | 0.23 | inactive |
| ZZEF1 | no change | no change | 1.02 | 1.44 | inactive |
| ARIH1 | no change | no change | 0.06 | -0.72 | inactive |
| PFN2 | no change | no change | -0.33 | -0.72 | inactive |
| RAB12 | no change | no change | 0.5 | 0.2 | inactive |
| CHEK2 | no change | no change | 0.84 | 0.08 | inactive |
| FES | no change | no change | -1.24 | 1.29 | inactive |
| SGPL1 | no change | no change | 0.32 | -0.29 | inactive |
| GCH1 | no change | no change | -0.76 | -0.42 | inactive |
| PCDHB12 | no change | no change | 0.7 | -0.3 | inactive |
| GNA14 | no change | no change | 0.99 | -0.56 | inactive |
| TLX1NB | no change | no change | -0.96 | 0.52 | inactive |
| MOSPD2 | no change | no change | 0.78 | -0.56 | inactive |

Copied from the list:
GCH1, caspase hit class = no change
THBS1, Call → inactive
For “viability robust z-score”, EIF2B2 reads -3.25
Entry for DMBT1 under “viability hit class”: no change
Under “viability hit class”, OR2G3 reads no change
TRMT9B, Call → inactive
